US9439430B2, “Method of controlling resistant harmful plants” (priority 2012, dated 2016)
For at least one compound, name, drawing or mass did not settle the structure.

Tests used:
[1] = system: TTTTT (all resistant and sensitive biotypes); test: Greenhouse test, PO application, mean over all resistant and sensitive biotypes; format: in vivo; conditions: (A) 50, (B) 20, mixture 50 + 20 g of AS/ha
Text: (§1) The 1:1 mixture of the two soil types was used specifically for cultivating small-seeded dicotyledonous weed since the standard field soil on its own tends to silt up, which may have an adverse effect on the emergence of small-seeded weeds. The resistances mentioned in the tables were confirmed beforehand in standard monitoring experiments. Nevertheless, the origins examined may have additional, hitherto unconfirmed resistances to various mechanisms of action.
(§2) The pots were then cultivated in a greenhouse (12-16 h light, temperature day 20-22° C., night 15-18° C.) until the time of application. The pots were treated at various BBCH stages of the seeds/plants on a laboratory track sprayer with spray liquors comprising the compositions according to the invention, mixtures of the prior art or the individual components. Application of the active compounds or active compound combinations and wetting agents formulated as WG, WP, EC or otherwise was carried out at the appropriate growth stages of the plants. The amount of water used for spray application was 100-600 l/ha. After the treatment, the plants were returned to the greenhouses and fertilized and watered as required. The pots were cultivated in a greenhouse (12-16 h light, temperature day 20-22° C., night 15-18° C.).
(§3) 3 weeks after the application, the foliar effect was evaluated on a scale of 0-100%: […]

[2] = system: TTTTT (all resistant and sensitive biotypes); test: Greenhouse test, PE application, mean over all resistant and sensitive biotypes; format: in vivo; conditions: (A) 12.5, (B) 20, mixture 12.5 + 20 g of AS/ha
Text: as §1, §2, §3

With `COC(=O)c1csc(C)c1S(=O)(=O)NC(=O)n1nc(OC)n(C)c1=O` [(B5), thiencarbazone-methyl] the “Difference in sensitivities Δ^D = TTTTT Ø resistant − TTTTT Ø sensitive” value [1] was “Δ^D − 52%” and the “Difference in sensitivities Δ^D = TTTTT Ø resistant − TTTTT Ø sensitive” value [2] was “Δ^D − 47%”.
